Screening data, single-dose tests

The chains behind the UniProt entries cited, without tags or fusion partners. Residues count along the entry.
UniProt A4I591, 1-473: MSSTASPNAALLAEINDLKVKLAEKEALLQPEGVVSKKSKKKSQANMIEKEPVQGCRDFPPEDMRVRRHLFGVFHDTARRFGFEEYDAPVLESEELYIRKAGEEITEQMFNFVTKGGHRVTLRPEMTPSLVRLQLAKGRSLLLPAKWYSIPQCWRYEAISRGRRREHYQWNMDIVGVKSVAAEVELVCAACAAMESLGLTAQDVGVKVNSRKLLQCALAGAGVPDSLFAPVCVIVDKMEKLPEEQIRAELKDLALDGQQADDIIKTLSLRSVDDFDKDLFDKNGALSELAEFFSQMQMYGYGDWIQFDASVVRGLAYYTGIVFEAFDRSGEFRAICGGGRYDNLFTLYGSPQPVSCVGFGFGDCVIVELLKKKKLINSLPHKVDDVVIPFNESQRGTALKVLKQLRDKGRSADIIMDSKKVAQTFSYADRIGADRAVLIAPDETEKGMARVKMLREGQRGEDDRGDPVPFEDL
UniProt P9WFT3, whole entry: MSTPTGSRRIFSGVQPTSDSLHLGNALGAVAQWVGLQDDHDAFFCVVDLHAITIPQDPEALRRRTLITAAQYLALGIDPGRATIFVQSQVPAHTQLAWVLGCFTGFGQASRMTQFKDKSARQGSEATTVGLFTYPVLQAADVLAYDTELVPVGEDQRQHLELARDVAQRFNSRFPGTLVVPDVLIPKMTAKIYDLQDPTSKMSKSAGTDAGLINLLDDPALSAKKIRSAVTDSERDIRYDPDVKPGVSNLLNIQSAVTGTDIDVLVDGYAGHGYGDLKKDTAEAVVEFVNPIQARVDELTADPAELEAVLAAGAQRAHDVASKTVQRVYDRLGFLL

LiHisRS: 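Enzyme assay of histidyl-tRNA synthetase; the read-out is not stated. Target: Histidine-tRNA ligase, Leishmania infantum (UniProt A4I591). Tested at 30 µM. The record gives no direction; compounds that gave an IC50 in retests scored well above the rest, so higher reads as stronger inhibition. The assay is labelled LdHisRS but filed under L. infantum. Of about 69,000 compounds tested this way, about 410 (0.6%) reached 50% or more in at least one test.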
T. brucei: 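Whole-parasite assay of Trypanosoma brucei over 72 hours; the read-out is not stated. Tested at 30 µM. The record gives no direction; compounds that gave an IC50 in retests scored well above the rest, so higher reads as stronger inhibition. Values scatter widely below zero; nearly all retest evidence comes from the higher of the two concentrations used. Of about 64,000 compounds tested this way, about 940 (1.5%) reached 50% or more in at least one test.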
MtTrpRS: 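Tryptophan-tRNA ligase, Mycobacterium tuberculosis (UniProt P9WFT3). Enzyme assay of tryptophanyl-tRNA synthetase; the read-out is not stated. Concentration: 10 µM. Higher most likely means stronger inhibition; the record gives no direction and few retests gave an IC50. Of about 65,000 compounds tested this way, about 64 (0.098%) reached 50% or more in at least one test.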

The filed quantity is “Percent Effect” (%).
How 0% and 100% were set is not recorded. Most values in the screen are low, and negative values occur.
This is an unselected part of the compounds tested.
A dash means the value is not listed here; it may have been measured.

Compound	LiHisRS	T. brucei	MtTrpRS
CN(C(=O)CN1CCOC(Cn2cccn2)C1)c1nccs1 (stereo not drawn)	21.88%	1.21%	1.981%
Cc1nc(C)n(CC2CCCN(CCOc3ccc(F)cc3)C2)n1 (stereo not drawn)	5.263%	3.738%	-4.78%
CC1CN(C)CCN1C(=O)c1ccn(-c2ccccc2)n1 (stereo not drawn)	1.739%	-47.95%	4.966%
CN1CCCC(N(C)S(=O)(=O)c2cccc3ncccc23)C1 (stereo not drawn)	9.89%	-34.3%	-2.136%
CN1CCC(NC(=O)C2CN(c3cncnc3)CCO2)CC1 (stereo not drawn)	-1.053%	-1.043%	-1.217%
CC1CCCN(C(=O)c2ncncc2Cl)C1 (stereo not drawn)	-10.53%	-31.7%	2.3%
O=C(NCc1ccccc1Cn1cncn1)C1CCCCC1	16.67%	14.53%	-5.834%
CCc1cc(=O)n(CC(=O)N2CCC(C)CC2)c(-c2cccc(F)c2)n1	6.173%	15.94%	1.782%
COC(=O)[C@@H]1Cc2[nH]cnc2CN1Cc1cc2ccccc2o1	25%	-8.448%	0.8283%
CCc1c(C)nn2c(O)cc(C3CCN(C(=O)c4ccccn4)C3)nc12 (stereo not drawn)	6.993%	6.691%	-0.1958%
CN(Cc1ccccn1)C(=O)c1nn(C)c2c1CCN(CC1CC1)C2	13.68%	-	1.066%
[H][C@@]12C[C@H](NC(=O)Cc3nc4nc(C)cc(C)n4n3)CN1CCN(C)C2	-	-3.535%	-
Cn1ccc(C(=O)NC2CCC23CCN(C(=O)N2CCCC2)CC3)c1 (stereo not drawn)	18.05%	-	0.7846%
c1ccc(-c2nnn3c2COC(CNCC2CC2)C3)cc1 (stereo not drawn)	11%	-19.08%	-1.44%
CCOc1cccc(CN2CCCn3nc(CNS(C)(=O)=O)cc3C2)c1	22.22%	-3.471%	-5.589%
COC(=O)CCN(C)C(=O)c1ccc(-c2cscn2)cc1	10%	-31.64%	1.952%
[H][C@]12CCN(Cc3cnc(NCc4ccccc4)nc3)C[C@]([H])(CC1)N2	-	10.06%	-
Cc1ccc2cc(CNCCN3CCCC3)c(=O)[nH]c2c1	22.68%	1.919%	-
CN1CC2(CCN(CC3CC3)CC2)COc2ccccc2S1(=O)=O.O=C(O)C(F)(F)F	-	-12.64%	-
Cc1ccc(C2COCCN2C(=O)c2cccc(N(C)C)c2)o1 (stereo not drawn)	16.96%	50.27%	5.141%
CN(Cc1ccsc1)C(=O)Nc1ccc(S(=O)(=O)N(C)C)cc1	-30.34%	-47.26%	4.17%
CCn1cnnc1CNC(=O)C1COc2ccc(Cl)cc2C1 (stereo not drawn)	17.5%	-19.66%	2.27%
O=C(O)C(F)(F)F.[H][C@@]12COC[C@]1(COCc1cccnc1)CN(C(=O)Cc1ccsc1)C2	-	-52.74%	-
Cc1cc(C)n(CC2CN(CC(=O)Nc3cccnc3)CCO2)n1 (stereo not drawn)	18.52%	-0.328%	1.91%
COc1ccc(-c2noc([C@@H]3C[C@@H](O)CN3C3CCOCC3)n2)cc1	-12.16%	-48.77%	-0.2276%
CC(NC(=O)NCCN1CCCCCC1=O)c1nncn1C (stereo not drawn)	12.31%	25.42%	0.8746%
CC(=O)NCc1cc2n(n1)CCN(Cc1cccc(Cl)c1F)C2	10.84%	-60.41%	0%
COc1ccccc1C1(CNCc2cccc(O)c2)CCOCC1	108.8%	15.56%	0.9238%
CCOC(=O)N(C)C1CCN(Cc2csc(C)n2)CC1	0%	30.8%	-3.561%
CC(=O)Nc1nc(CN2CCCCC2Cn2cncn2)cs1 (stereo not drawn)	0%	-16.46%	0%
COCc1ccc(C(=O)N2CCC(Oc3ccccc3)(C(=O)O)CC2)o1	8.333%	-16.4%	3.767%
[H][C@@]12C[C@H](C(=O)NCC(C)C)[C@@]([H])(CN(C(=O)NCC3CCCCC3)C1)O2	-	-50.62%	-
CCCN(CC(F)(F)F)C(=O)c1cc(F)cc2[nH]cnc12	8.475%	-32.39%	-2.918%
[H][C@]12CC[C@]([H])(CN(c3ncccn3)C1)N(Cc1ccc(NC(C)=O)cc1)C2	-	-57.44%	-
O=C(CN1CCCCC1)N1CCC(c2cc(=O)n3c(n2)CCCCC3)C1 (stereo not drawn)	24.21%	-	0.8696%
OCCN(Cc1ccccc1)Cc1ccsc1	10.2%	-9.676%	-1.975%
O=c1c2cccnc2cnn1CC(O)c1ccc(F)c(F)c1 (stereo not drawn)	23.53%	17.78%	-3.072%

3 of the entries, repeated:

Compound	LiHisRS	T. brucei	MtTrpRS
[H][C@]12CCN(Cc3cnc(NCc4ccccc4)nc3)C[C@]([H])(CC1)N2	-	10.06%	-
O=C(O)C(F)(F)F.[H][C@@]12COC[C@]1(COCc1cccnc1)CN(C(=O)Cc1ccsc1)C2	-	-52.74%	-
COC(=O)[C@@H]1Cc2[nH]cnc2CN1Cc1cc2ccccc2o1	25%	-8.448%	0.8283%

From ChEMBL document CHEMBL3988442, “University of Dundee, Small-Polar-MMV Screening Library” (2021).